PubChem BioAssay AID1259405 – NCATS | 2018

Screen: 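Silenced genes that increase secreted GFP made by CHO cells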 (primary screen)
Cell system: Chinese hamster CHO-K1 ovary cells with stable secreted eGFP expression
Reagent: single siRNA against mouse genes, 0.8 pmol siRNA per well (2 µl of 400 nM stock)
Timing: 3 days
Measured: 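Percent of the per-plate non-targeting control median for intracellular GFP per well by laser scanning cytometry and for cell viability by ATP luminescence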
Direction: GFP, % of control: higher = more GFP per well, higher productivity; viability (ATP), % of control: higher = more viable cells (more ATP)
Hit rule: 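Called active when intracellular GFP, relative to negative control, is at or above 120%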
The whole screen tested about 50,000 reagents; shown is an unselected part. Over the whole deposit, about 4,000 (8%) were called active. 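Mouse siRNA library applied to hamster cells; one well for each siRNA.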 Reagents against one gene are numbered here.

Lnx2 (ligand of numb-protein X 2) #1
- GFP, % of control: 65.1
- viability (ATP), % of control: 77.1
- activity call: inactive

Lnx2 (ligand of numb-protein X 2) #2
- GFP, % of control: 184
- viability (ATP), % of control: 107
- activity call: active

Lnx2 (ligand of numb-protein X 2) #3
- GFP, % of control: 55
- viability (ATP), % of control: 96
- activity call: inactive

Hrh1 (histamine receptor H1) #1
- GFP, % of control: 42.7
- viability (ATP), % of control: 76.4
- activity call: inactive

Hrh1 (histamine receptor H1) #2
- GFP, % of control: 84
- viability (ATP), % of control: 92.3
- activity call: inactive

Hrh1 (histamine receptor H1) #3
- GFP, % of control: 76.9
- viability (ATP), % of control: 82.4
- activity call: inactive

Ube3c (ubiquitin protein ligase E3C) #1
- GFP, % of control: 95.9
- viability (ATP), % of control: 78.1
- activity call: inactive

Ube3c (ubiquitin protein ligase E3C) #2
- GFP, % of control: 63.1
- viability (ATP), % of control: 57.1
- activity call: inactive

Ube3c (ubiquitin protein ligase E3C) #3
- GFP, % of control: 60.8
- viability (ATP), % of control: 51.3
- activity call: inactive

Phxr4 (per-hexamer repeat gene 4) #1
- GFP, % of control: 117
- viability (ATP), % of control: 84.6
- activity call: inactive

Phxr4 (per-hexamer repeat gene 4) #2
- GFP, % of control: 96.1
- viability (ATP), % of control: 61.2
- activity call: inactive

Phxr4 (per-hexamer repeat gene 4) #3
- GFP, % of control: 79.3
- viability (ATP), % of control: 66.1
- activity call: inactive

Ebpl (emopamil binding protein-like) #1
- GFP, % of control: 108
- viability (ATP), % of control: 94.2
- activity call: inactive

Ebpl (emopamil binding protein-like) #2
- GFP, % of control: 107
- viability (ATP), % of control: 101
- activity call: inactive

Ebpl (emopamil binding protein-like) #3
- GFP, % of control: 74.7
- viability (ATP), % of control: 79.2
- activity call: inactive

Cox20 (cytochrome c oxidase assembly protein 20) #1
- GFP, % of control: 67
- viability (ATP), % of control: 71.5
- activity call: inactive

Cox20 (cytochrome c oxidase assembly protein 20) #2
- GFP, % of control: 28.4
- viability (ATP), % of control: 42.7
- activity call: inactive

Cox20 (cytochrome c oxidase assembly protein 20) #3
- GFP, % of control: 67
- viability (ATP), % of control: 67.5
- activity call: inactive

Chchd2l2 #1
- GFP, % of control: 56.1
- viability (ATP), % of control: 57.5
- activity call: inactive

Chchd2l2 #2
- GFP, % of control: 70.4
- viability (ATP), % of control: 40
- activity call: inactive

Chchd2l2 #3
- GFP, % of control: 91.9
- viability (ATP), % of control: 78.5
- activity call: inactive

Not a retest: an excerpt of the list.
Ebpl (emopamil binding protein-like) #3
- GFP, % of control: 74.7
- viability (ATP), % of control: 79.2
- activity call: inactive

Cox20 (cytochrome c oxidase assembly protein 20) #1
- GFP, % of control: 67
- viability (ATP), % of control: 71.5
- activity call: inactive

Cox20 (cytochrome c oxidase assembly protein 20) #2
- GFP, % of control: 28.4
- viability (ATP), % of control: 42.7
- activity call: inactive

Cox20 (cytochrome c oxidase assembly protein 20) #3
- GFP, % of control: 67
- viability (ATP), % of control: 67.5
- activity call: inactive

Chchd2l2 #1
- GFP, % of control: 56.1
- viability (ATP), % of control: 57.5
- activity call: inactive

Chchd2l2 #2
- GFP, % of control: 70.4
- viability (ATP), % of control: 40
- activity call: inactive

Chchd2l2 #3
- GFP, % of control: 91.9
- viability (ATP), % of control: 78.5
- activity call: inactive

Additional results follow:
Srm (spermidine synthase) #1
- GFP, % of control: 72.2
- viability (ATP), % of control: 76.1
- activity call: inactive

Srm (spermidine synthase) #2
- GFP, % of control: 79.5
- viability (ATP), % of control: 117
- activity call: inactive

Srm (spermidine synthase) #3
- GFP, % of control: 105
- viability (ATP), % of control: 95.6
- activity call: inactive

Oprk1 (opioid receptor, kappa 1) #1
- GFP, % of control: 70.3
- viability (ATP), % of control: 65.2
- activity call: inactive

Oprk1 (opioid receptor, kappa 1) #2
- GFP, % of control: 72.8
- viability (ATP), % of control: 75.6
- activity call: inactive

Oprk1 (opioid receptor, kappa 1) #3
- GFP, % of control: 110
- viability (ATP), % of control: 73
- activity call: inactive

Xrcc5 (X-ray repair complementing 5) #1
- GFP, % of control: 86
- viability (ATP), % of control: 81.1
- activity call: inactive

Xrcc5 (X-ray repair complementing 5) #2
- GFP, % of control: 68.4
- viability (ATP), % of control: 77.7
- activity call: inactive

Xrcc5 (X-ray repair complementing 5) #3
- GFP, % of control: 61.2
- viability (ATP), % of control: 84.6
- activity call: inactive

Zfp944 (zinc finger protein 944) #1
- GFP, % of control: 75
- viability (ATP), % of control: 70.9
- activity call: inactive

Zfp944 (zinc finger protein 944) #2
- GFP, % of control: 87.3
- viability (ATP), % of control: 81.5
- activity call: inactive

Zfp944 (zinc finger protein 944) #3
- GFP, % of control: 84.4
- viability (ATP), % of control: 83
- activity call: inactive

Trafd1 (TRAF type zinc finger domain containing 1) #1
- GFP, % of control: 60.4
- viability (ATP), % of control: 61.4
- activity call: inactive

Trafd1 (TRAF type zinc finger domain containing 1) #2
- GFP, % of control: 103
- viability (ATP), % of control: 94.2
- activity call: inactive

Trafd1 (TRAF type zinc finger domain containing 1) #3
- GFP, % of control: 50.6
- viability (ATP), % of control: 57
- activity call: inactive

Acer3 (alkaline ceramidase 3) #1
- GFP, % of control: 63
- viability (ATP), % of control: 58.7
- activity call: inactive

Acer3 (alkaline ceramidase 3) #2
- GFP, % of control: 82.7
- viability (ATP), % of control: 54.5
- activity call: inactive

Acer3 (alkaline ceramidase 3) #3
- GFP, % of control: 69.3
- viability (ATP), % of control: 40.3
- activity call: inactive

Txndc16 (thioredoxin domain containing 16) #1
- GFP, % of control: 11.3
- viability (ATP), % of control: 16.6
- activity call: inactive

Txndc16 (thioredoxin domain containing 16) #2
- GFP, % of control: 58.9
- viability (ATP), % of control: 69.2
- activity call: inactive

Txndc16 (thioredoxin domain containing 16) #3
- GFP, % of control: 100
- viability (ATP), % of control: 91.9
- activity call: inactive

Ptprz1 (protein tyrosine phosphatase receptor type Z, polypeptide 1) #1
- GFP, % of control: 98.8
- viability (ATP), % of control: 92.6
- activity call: inactive

Ptprz1 (protein tyrosine phosphatase receptor type Z, polypeptide 1) #2
- GFP, % of control: 73.2
- viability (ATP), % of control: 78
- activity call: inactive

Galnt10 (polypeptide N-acetylgalactosaminyltransferase 10) #1
- GFP, % of control: 56.9
- viability (ATP), % of control: 56.1
- activity call: inactive

Galnt10 (polypeptide N-acetylgalactosaminyltransferase 10) #2
- GFP, % of control: 86.1
- viability (ATP), % of control: 79.7
- activity call: inactive

Galnt10 (polypeptide N-acetylgalactosaminyltransferase 10) #3
- GFP, % of control: 61.6
- viability (ATP), % of control: 81
- activity call: inactive

Pnpla7 (patatin-like phospholipase domain containing 7) #1
- GFP, % of control: 74.4
- viability (ATP), % of control: 64.6
- activity call: inactive

Pnpla7 (patatin-like phospholipase domain containing 7) #2
- GFP, % of control: 92.1
- viability (ATP), % of control: 100
- activity call: inactive

Pnpla7 (patatin-like phospholipase domain containing 7) #3
- GFP, % of control: 85.5
- viability (ATP), % of control: 79.3
- activity call: inactive

Or4k2 (olfactory receptor family 4 subfamily K member 2) #1
- GFP, % of control: 79.9
- viability (ATP), % of control: 67.7
- activity call: inactive

Or4k2 (olfactory receptor family 4 subfamily K member 2) #2
- GFP, % of control: 80.7
- viability (ATP), % of control: 60.1
- activity call: inactive

Or4k2 (olfactory receptor family 4 subfamily K member 2) #3
- GFP, % of control: 76.3
- viability (ATP), % of control: 111
- activity call: inactive
